Results published in article PMC9484695, “The evolutionary conserved proteins CEP90, FOPNL, and OFD1 recruit centriolar distal appendage proteins to initiate their assembly” (PLoS Biology, 2022).
No constants are given. Whether binding was seen depends on the method and setting. In cells and extracts the contact can be indirect. Binding can be weak; no strength is given. One block for each binder: values may come before it.

Target: GFP-tagged mouse FOPNL (mouse)
Assay: co-IP; Hela Kyoto GFP-FOPNL lysate (50 mM Tris-HCl pH 7.5, 150 mM NaCl, 1 mM EDTA, 1% NP-40, 0.25% sodium deoxycholate); agarose beads with mouse anti-GFP or mouse IgG, 3 h at 4°C; blots with anti-GFP, CEP90 and OFD1

- binding: binds
B1: OFD1 (endogenous) (natural protein, UniProt O75665 1-1012, looked up)
chain: MMAQSNMFTVADVLSQDELRKKLYQTFKDRGILDTLKTQLRNQLIHELMHPVLSGELQPRSISVEGSSLLIGASNSLVADHLQRCGYEYSLSVFFPESGLAKEKVFTMQDLLQLIKINPTSSLYKSLVSGSDKENQKGFLMHFLKELAEYHQAKESCNMETQTSSTFNRDSLAEKLQLIDDQFADAYPQRIKFESLEIKLNEYKREIEEQLRAEMCQKLKFFKDTEIAKIKMEAKKKYEKELTMFQNDFEKACQAKSEALVLREKSTLERIHKHQEIETKEIYAQRQLLLKDMDLLRGREAELKQRVEAFELNQKLQEEKHKSITEALRRQEQNIKSFEETYDRKLKNELLKYQLELKDDYIIRTNRLIEDERKNKEKAVHLQEELIAINSKKEELNQSVNRVKELELELESVKAQSLAITKQNHMLNEKVKEMSDYSLLKEEKLELLAQNKLLKQQLEESRNENLRLLNRLAQPAPELAVFQKELRKAEKAIVVEHEEFESCRQALHKQLQDEIEHSAQLKAQILGYKASVKSLTTQVADLKLQLKQTQTALENEVYCNPKQSVIDRSVNGLINGNVVPCNGEISGDFLNNPFKQENVLARMVASRITNYPTAWVEGSSPDSDLEFVANTKARVKELQQEAERLEKAFRSYHRRVIKNSAKSPLAAKSPPSLHLLEAFKNITSSSPERHIFGEDRVVSEQPQVGTLEERNDVVEALTGSAASRLRGGTSSRRLSSTPLPKAKRSLESEMYLEGLGRSHIASPSPCPDRMPLPSPTESRHSLSIPPVSSPPEQKVGLYRRQTELQDKSEFSDVDKLAFKDNEEFESSFESAGNMPRQLEMGGLSPAGDMSHVDAAAAAVPLSYQHPSVDQKQIEEQKEEEKIREQQVKERRQREERRQSNLQEVLERERRELEKLYQERKMIEESLKIKIKKELEMENELEMSNQEIKDKSAHSENPLEKYMKIIQQEQDQESADKSSKKMVQEGSLVDTLQSSDKVESLTGFSHEELDDSW
notes: OFD1, endogenous human protein; source: endogenous: HEK293 Flp-In cells (BioID); Hela Kyoto lysate (co-IP); U2OS cells (microtubule recruitment assay)

- binding: binds
B2: CEP90/PIBF1 (endogenous) (protein, UniProt Q8WXW3 1-757)
chain: MSRKISKESKKVNISSSLESEDISLETTVPTDDISSSEEREGKVRITRQLIERKELLHNIQLLKIELSQKTMMIDNLKVDYLTKIEELEEKLNDALHQKQLLTLRLDNQLAFQQKDASKYQELMKQEMETILLRQKQLEETNLQLREKAGDVRRNLRDFELTEEQYIKLKAFPEDQLSIPEYVSVRFYELVNPLRKEICELQVKKNILAEELSTNKNQLKQLTETYEEDRKNYSEVQIRCQRLALELADTKQLIQQGDYRQENYDKVKSERDALEQEVIELRRKHEILEASHMIQTKERSELSKEVVTLEQTVTLLQKDKEYLNRQNMELSVRCAHEEDRLERLQAQLEESKKAREEMYEKYVASRDHYKTEYENKLHDELEQIRLKTNQEIDQLRNASREMYERENRNLREARDNAVAEKERAVMAEKDALEKHDQLLDRYRELQLSTESKVTEFLHQSKLKSFESERVQLLQEETARNLTQCQLECEKYQKKLEVLTKEFYSLQASSEKRITELQAQNSEHQARLDIYEKLEKELDEIIMQTAEIENEDEAERVLFSYGYGANVPTTAKRRLKQSVHLARRVLQLEKQNSLILKDLEHRKDQVTQLSQELDRANSLLNQTQQPYRYLIESVRQRDSKIDSLTESIAQLEKDVSNLNKEKSALLQTKNQMALDLEQLLNHREELAAMKQILVKMHSKHSENSLLLTKTEPKHVTENQKSKTLNVPKEHEDNIFTPKPTLFTKKEAPEWSKKQKMKT
